{"source": "PubChem BioAssay AID504834", "about": "(National Center for Advancing Translational Sciences (NCATS), 2011)", "note": "Hit rate of the full screen: of about 320,000 compounds, about 22,000 (6.9%) were called active. This list was built around the results that the source calls inconclusive (neither active nor inactive); the mix of calls is not that of the screen. The call rests on the fitted dose curve; in most records, active means well fitted inhibition curve with a large enough effect; inconclusive means small, poorly fitted or top-dose-only effect, or another doubt; inactive means no such curve, though single readings can be large or run the other way. Potencies of inconclusive entries are doubtful fits and often do not repeat. On the % scale 0 is the no-effect control and ±100 the full control effect; potency means the concentration at half of the fitted maximal effect.", "data": [{"assay": "Primary qHTS for delayed death inhibitors of the malarial parasite plastid, 96 hour incubation", "conditions": "P. falciparum luciferase reporter growth; series mostly up to 28.7 µM; activity change, negative = inhibition: at the top concentration", "summary_of_the_method": "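Parasite growth measured via integrated firefly luciferase reporter in P. falciparum. Infected erythrocytes at 2% hematocrit, 0.05% parasitemia final were treated 96 hours at 37 C under 5% CO2, and luminescence was read.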", "values": [{"smiles": "CC(C)(C)NC(=O)CCN(/N=C/c1ccccc1O)C1=NS(=O)(=O)c2ccccc21", "activity change, negative = inhibition": "inactive: 22.8%"}, {"smiles": "CSc1ccccc1NC(=O)C1CC(c2ccccc2Cl)=NO1", "note": "(centres undefined)", "Potency": "inconclusive: 11.7 µM [inhibitor, single point]"}, {"smiles": "COc1cccc(-c2nnc3n2N=C(c2cc(OC)ccc2OC)CS3)c1", "Potency": "inconclusive: 0.415 µM [inhibitor, full curve]"}, {"smiles": "COc1ccc(-[n+]2c(-c3ccccc3)cc(-c3ccccc3)cc2-c2ccccc2)cc1", "Potency": "active: 0.294 µM"}, {"smiles": "COc1ccc(OC)c2sc(N(CCCN(C)C)C(=O)c3ccc(S(=O)(=O)N4CCc5ccccc5C4)cc3)nc12", "Potency": "inconclusive: 18.5 µM [inhibitor, single point]"}, {"smiles": "CCOC(=O)CNC(=O)CN1C(=O)CC(c2ccccc2)S(=O)(=O)c2ccccc21", "note": "(centres undefined)", "Potency": "inconclusive: 9.28 µM [inhibitor, single point]"}, {"smiles": "Cc1cn([C@H]2C[C@H](N=[N+]=[N-])[C@@H](CO)O2)c(=O)[nH]c1=O", "Potency": "inactive"}, {"smiles": "O=C(CS(=O)(=O)c1ccccc1)c1ccc2c(c1)OCCO2", "Potency": "inconclusive: 13.1 µM [inhibitor, single point]"}, {"smiles": "CCCCCCCCS(=O)c1sc2nc(C)cc(C)c2c1N", "note": "(centres undefined)", "Potency": "inconclusive: 14.7 µM [inhibitor, single point]"}, {"smiles": "Cc1ccc(C)c(-n2ccnc2SCC(=O)c2c(N)n(C3CC3)c(=O)[nH]c2=O)c1", "Potency": "inconclusive: 0.233 µM [inhibitor, full curve, poor fit]"}, {"smiles": "Cc1c(S(=O)(=O)c2ccccn2)c(N)n(Cc2cccc(Cl)c2)c1C", "Potency": "inconclusive: 10.4 µM [inhibitor, single point]"}, {"smiles": "O=C1NCC(COc2ccc([N+](=O)[O-])cc2)O1", "note": "(centres undefined)", "activity change, negative = inhibition": "inactive: 21.7%"}, {"smiles": "CN(C)S(=O)(=O)c1cccc(NC(=O)CCCSc2ccccc2)c1", "Potency": "inconclusive: 18.5 µM [inhibitor, single point]"}, {"smiles": "Cc1ccc(S(=O)(=O)N2CCN(C(=O)COC(=O)c3ccc(O)cc3)CC2)c(C)c1", "Potency": "inconclusive: 18.5 µM [inhibitor, partial curve, poor fit]"}, {"smiles": "CC1CC(C)CN(CCOc2ccc(Cl)cc2Cl)C1", "note": "(centres undefined)", "Potency": "inconclusive: 0.0928 µM [inhibitor, full curve, poor fit]"}, {"smiles": "O=C(NCc1ccco1)C1CCCN1C(=O)Nc1ccccc1Cl", "note": "(centres undefined)", "activity change, negative = inhibition": "inactive: 13.6%"}, {"smiles": "CCCOc1cccc(-c2nnc(N)s2)c1", "activity change, negative = inhibition": "inactive: 0.595% [at 5.75 µM]"}, {"smiles": "COc1ccc(Nc2nc(-c3c(C)nc4ncccn34)cs2)cc1", "Potency": "inconclusive: 18.5 µM [inhibitor, single point]"}, {"smiles": "Cc1cccc(C)c1OCC(O)CNC(C)C", "note": "(centres undefined)", "Potency": "inconclusive: 16.5 µM [inhibitor, single point]"}]}]}
